# Source: the supplement of paper PMC9135407
# “And” between values parts separate entries of the source, which are not always exact repeats. Equal entries are not always repeated. Structures can show the parent of a compound that is named as a salt. ± gives the standard deviation of the averaged measurements. The list shows a part of the results. Plates or batches differ in their baseline, so values are only roughly comparable.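 Primary human stellate myofibroblasts activated in culture; inactivation shown by regained lipid droplets. Readout: fraction of Hoechst-counted cells exceeding a per-plate Bodipy threshold, duplicate wells, each plate with DMSO negative and nortriptyline positive controls. Hits: control-normalized score beyond the plate's top-tenth-percentile nortriptyline wells, or among its three best wells. Final well concentrations unstated.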
# Tested on: primary human hepatic stellate cells (donor 1)
# Test: percent Bodipy-positive cells; higher = more lipid droplet accumulation
# Details: 48 h
# [1] = library stock concentration: 10 mM
# [2] = library stock concentration: 3.33 mM
# [3] = library stock concentration: 1 mM
# [4] = library stock concentration: 2 mM
# [5] = library stock concentration: 80 uM
# [6] = library stock concentration: 400 uM
# [7] = library stock concentration: 4.9 mM
compound,measurement,setting,value
COC(=O)C1=C(C)NC(C)=C(C(=O)OCC(C)C)C1c1ccccc1[N+](=O)[O-] (stereo not drawn),percent Bodipy-positive cells,[1],37.2 ± 3.6%
COC(=O)C1=C(C)NC(C)=C(C(=O)OCC(C)C)C1c1ccccc1[N+](=O)[O-] (stereo not drawn) [Nisoldipine],percent Bodipy-positive cells,,9.17 ± 0.72%
same,percent Bodipy-positive cells,[2],8.05 ± 0.73%
same,percent Bodipy-positive cells,library stock concentration: 5.1 mM,7.84% and 17.6%
same,percent Bodipy-positive cells,[1],35.3 ± 7.5%
Oc1cc(O)c(Cl)cn1 [Gimeracil],percent Bodipy-positive cells,[2],7.56 ± 0.34%
same,percent Bodipy-positive cells,[1],7.41 ± 3%
CC1(C)CCC(C)(C)c2cc(C(=O)Nc3ccc(C(=O)O)cc3)ccc21,percent Bodipy-positive cells,[3],11.4 ± 8%
same,percent Bodipy-positive cells,[1],4.96 ± 0.64%
O=C1Cc2c([nH]c3ccc(Br)cc23)-c2ncccc2N1 [1-Azakenpaullone],percent Bodipy-positive cells,[2],61.1 ± 7.2%
same,percent Bodipy-positive cells,[1],87.1 ± 4.9%
O=C(CCC/C=C\C[C@H]1C(=O)C[C@@H](O)C1/C=C/[C@@H](O)CCc1ccccc1)NC(CO)CO (stereo partly drawn) [17-phenyl trinor Prostaglandin E2 serinol amide],percent Bodipy-positive cells,[3],23.3 ± 17%
Nc1ccccc1NC(=O)c1ccc(CNc2nccc(-c3cccnc3)n2)cc1 [Mocetinostat],percent Bodipy-positive cells,[4],86.381 ± 0.023%
same,percent Bodipy-positive cells,[1],90.34 ± 0.49%
CC(=O)N1CCN(C)CC1 [1-Acetyl-4-methylpiperazine hydrochloride],percent Bodipy-positive cells,[1],4.81 ± 0.68%
Cc1cc(-c2ccc(CC(=O)Nc3ccc(-c4cccnc4)cc3)cc2)ccn1,percent Bodipy-positive cells,[2],28.1 ± 12%
same,percent Bodipy-positive cells,[1],52.7 ± 4.5%
CCCCCCC[C@H](O)/C=C/[C@@H]1[C@@H](C/C=C\CCCC(=O)O)[C@@H](O)C[C@H]1O [20-ethyl Prostaglandin F2.alpha.],percent Bodipy-positive cells,[3],15.7 ± 0.57%
COC(=O)[C@H]1[C@H]2C[C@@H]3c4[nH]c5cc(OC)ccc5c4CCN3C[C@H]2C[C@@H](OC(=O)/C=C/c2cc(OC)c(OC)c(OC)c2)[C@@H]1OC [Rescinnamin],percent Bodipy-positive cells,,65.7 ± 13%
COCCOc1ccc2c(c1)ncn2-c1ccc2cccc(N3CCC(N)CC3)c2n1,percent Bodipy-positive cells,[5],5.87 ± 2.3%
same,percent Bodipy-positive cells,[6],25.1 ± 5.2%
same,percent Bodipy-positive cells,[4],44.7 ± 4.5%
same,percent Bodipy-positive cells,[2],90.5 ± 3.8%
same,percent Bodipy-positive cells,[1],99.61 ± 0.56%
Cc1cc(Nc2cc(N3CCN(C)CC3)nc(/C=C/c3ccccc3)n2)n[nH]1,percent Bodipy-positive cells,[1],100%
CCCC(=O)[O-].[Na+] [Sodium Butyrate],percent Bodipy-positive cells,[3],11.3 ± 2.5%
COC(=O)C1=C(C)NC(C)=C(C(=O)OCCN(C)Cc2ccccc2)C1c1cccc([N+](=O)[O-])c1 (stereo not drawn) [Nicardipine hydrochloride],percent Bodipy-positive cells,,55.6 ± 18%
COC(=O)C1=C(C)NC(C)=C(C(=O)OCCN(C)Cc2ccccc2)C1c1cccc([N+](=O)[O-])c1 (stereo not drawn) [Nicardipine?HCl],percent Bodipy-positive cells,library stock concentration: 9.7 mM,59.3 ± 5%
COC(=O)C1=C(C)NC(C)=C(C(=O)OCCN(C)Cc2ccccc2)C1c1cccc([N+](=O)[O-])c1 (stereo not drawn) [Cardene],percent Bodipy-positive cells,[1],70.5 ± 7.4%
COC(=O)C1=C(C)NC(C)=C(C(=O)OCCN(C)Cc2ccccc2)C1c1cccc([N+](=O)[O-])c1 (stereo not drawn) [Nicardipine HCl],percent Bodipy-positive cells,[2],16.8 ± 8.5%
same,percent Bodipy-positive cells,[1],71.4 ± 1.3%
Cc1cncc2cccc(S(=O)(=O)N3CCCN(C(=O)CN)C[C@@H]3C)c12 [Rho Kinase Inhibitor IV],percent Bodipy-positive cells,[2],6.41 ± 0.2%
Cc1nc(C#Cc2ccnc(Cl)c2)c(C)n1-c1ccc(OC(F)(F)F)cc1,percent Bodipy-positive cells,[2],7.21 ± 5.5%
same,percent Bodipy-positive cells,[1],19.6 ± 2.9%
Clc1ccc2c(c1)CCc1cccnc1C2=C1CCNCC1,percent Bodipy-positive cells,[1],91.7 ± 5.8%
OC[C@H]1O[C@@H](c2ccc(Cl)c(Cc3ccc(O[C@H]4CCOC4)cc3)c2)[C@H](O)[C@@H](O)[C@@H]1O,percent Bodipy-positive cells,[2],25.8 ± 9.9%
same,percent Bodipy-positive cells,[1],37.2 ± 1.5%
O=C1C(O)=C([C@H]2CC[C@H](c3ccc(Cl)cc3)CC2)C(=O)c2ccccc21 [Atovaquone],percent Bodipy-positive cells,,32.7 ± 2.2%
same,percent Bodipy-positive cells,[1],37.1 ± 6.7%
"CC(C)NCC(O)c1ccc(O)c(O)c1 (single isomer, unassigned; (-)) [(-)-Isoproterenol hydrochloride]",percent Bodipy-positive cells,,12.5 ± 4.9%
same,percent Bodipy-positive cells,[1],43.8 ± 12%
NCCNS(=O)(=O)c1cccc2c(Cl)cccc12 [A3 hydrochloride],percent Bodipy-positive cells,[1],18.2 ± 1.9%
Cc1ccccc1C(OCCN(C)C)c1ccccc1 (stereo not drawn) [Norflex],percent Bodipy-positive cells,[1],79 ± 3%
Cc1ccccc1C(OCCN(C)C)c1ccccc1 (stereo not drawn) [Disipal],percent Bodipy-positive cells,[1],79.9 ± 1.8%
Cc1ccccc1C(OCCN(C)C)c1ccccc1 (stereo not drawn) [Orphenadrine hydrochloride],percent Bodipy-positive cells,,56.3 ± 5.5%
same,percent Bodipy-positive cells,[1],72.83 ± 0.37%
Cc1ccccc1C(OCCN(C)C)c1ccccc1 (stereo not drawn) [Orphenadrine citrate],percent Bodipy-positive cells,[1],54 ± 7.9%
Cc1ccccc1C(OCCN(C)C)c1ccccc1 (stereo not drawn) [Orphenadrine Citrate],percent Bodipy-positive cells,[2],27.51 ± 0.26%
same,percent Bodipy-positive cells,[1],56 ± 1.3%
Cc1ncc2ccccc2c1C#N [4-Cyano-3-methylisoquinoline],percent Bodipy-positive cells,[2],10.3 ± 0.28%
CNCc1cc(-c2ccccc2F)n(S(=O)(=O)c2cccnc2)c1,percent Bodipy-positive cells,[2],49.8 ± 2.8%
same,percent Bodipy-positive cells,[1],75.8 ± 11%
COc1cc(C(=O)OCCC[NH+]2CCC[NH+](CCCOC(=O)c3cc(OC)c(OC)c(OC)c3)CC2)cc(OC)c1OC.[Cl-].[Cl-] [Dilazep hydrochloride],percent Bodipy-positive cells,[1],95.36 ± 0.28%
CCCCCCCCCCCC1=C(O)C(=O)C=C(O)C1=O [Embelin],percent Bodipy-positive cells,[2],12.7 ± 3.2%
CCCCC[C@H](O)/C=C/[C@@H]1[C@@H](C/C=C/CCCC(=O)O)[C@@H](O)C[C@H]1O [5-trans Prostaglandin F2.alpha. (tromethamine salt)],percent Bodipy-positive cells,[3],15.2 ± 3.9%
CCCCC[C@H](O)/C=C/[C@@H]1[C@@H](C/C=C/CCCC(=O)O)[C@@H](O)C[C@H]1O [5-trans Prostaglandin F2.alpha.],percent Bodipy-positive cells,[3],7.5 ± 0.97%
COc1c2ccoc2cc2oc(=O)ccc12 [Bergapten],percent Bodipy-positive cells,[2],13.1 ± 4.4%
same,percent Bodipy-positive cells,[1],29.5% and 38.3%
"CCCCCCCC/C=C\CCCCCCCC(=O)OC[C@H](CO)OC(=O)CCCCCCC/C=C\CCCCCCCC [1,2-Dioleoyl-sn-glycerol]",percent Bodipy-positive cells,[3],11.4 ± 9%
O=C1CCc2ccc(OCCCCN3CCN(c4cccc(Cl)c4Cl)CC3)cc2N1 [Aripiprazole],percent Bodipy-positive cells,[2],42.7 ± 13%
same,percent Bodipy-positive cells,library stock concentration: 4.5 mM,29% and 51.3%
same,percent Bodipy-positive cells,[1],79.3 ± 2.2%
CCCCCCCCCCCCCCCC(=O)C(F)(F)F,percent Bodipy-positive cells,[1],4.87 ± 1.2%
CCCCCCCCCCCCCCCC(=O)C(F)(F)F [Palmityl Trifluoromethyl Ketone],percent Bodipy-positive cells,[3],8.04 ± 2.4%
CN(C)CCOC(c1ccc(Cl)cc1)c1ccccn1 (stereo not drawn) [Carbinoxamine maleate],percent Bodipy-positive cells,[7],19.2 ± 6.4%
same,percent Bodipy-positive cells,[1],28.5 ± 11%
CN(C)CCOC(c1ccc(Cl)cc1)c1ccccn1 (stereo not drawn) [Carbinoxamine Maleate],percent Bodipy-positive cells,[1],72.5 ± 5.3%
CN(C)CCOC(c1ccc(Cl)cc1)c1ccccn1 (stereo not drawn) [Carbinoxamine maleate salt],percent Bodipy-positive cells,,23.7 ± 6%
Cc1cc(NC(=O)c2cccc(NC(=O)C=CCN(C)C)c2)ccc1Nc1nccc(-c2cccnc2)n1,percent Bodipy-positive cells,[2],78.5 ± 5.1%
same,percent Bodipy-positive cells,[1],100%
Nc1nc2c(ccc3ccccc32)s1,percent Bodipy-positive cells,[1],5.98 ± 2.6%
Clc1ccc2c(c1)C(N1CCNCC1)=Nc1ccccc1O2 [Amoxapine],percent Bodipy-positive cells,library stock concentration: 6.4 mM,66.5 ± 7.3%
CCCCCCCCCCCCCC(=O)O [Myristic Acid],percent Bodipy-positive cells,[3],13.6 ± 0.67%
NC(=O)NC1NC(=O)NC1=O (stereo not drawn) [Allantoin],percent Bodipy-positive cells,,59.9 ± 21%
same,percent Bodipy-positive cells,[1],26.2 ± 10%
same,percent Bodipy-positive cells,library stock concentration: 12.6 mM,12.7 ± 2.2%
COc1ccc(NC(=O)c2ccc(-c3ccc(-c4noc(C)n4)cc3C)cc2)cc1N1CCN(C)CC1,percent Bodipy-positive cells,[1],99.5% and 90.5%
O=C(Nc1ccc(-c2ccnc(Nc3ccc(N4CCOCC4)cc3)n2)cc1)[C@@H]1CCCN1,percent Bodipy-positive cells,[1],71.7 ± 4.6%
Cc1cnc(Nc2ccc(F)cc2Cl)nc1-c1c[nH]c(C(=O)N[C@H](CO)c2cccc(Cl)c2)c1,percent Bodipy-positive cells,[5],11.516 ± 0.011%
same,percent Bodipy-positive cells,[6],16.8 ± 12%
same,percent Bodipy-positive cells,[4],9.48 ± 4.2%
same,percent Bodipy-positive cells,[1],23.7 ± 12%
CN(C)[C@@H]1C(O)=C(C(=O)NCNCCCC[C@H](N)C(=O)O)C(=O)[C@@]2(O)C(O)=C3C(=O)c4c(O)cccc4[C@@](C)(O)[C@H]3C[C@@H]12 [Lymecycline],percent Bodipy-positive cells,,5.2 ± 3.2%
CCCCNc1ccc(C(=O)OCCN(C)C)cc1 [Tetracaine HCl],percent Bodipy-positive cells,[2],15.8 ± 2%
same,percent Bodipy-positive cells,[1],67.5 ± 21%
CCCCNc1ccc(C(=O)OCCN(C)C)cc1 [Tetracaine hydrochloride],percent Bodipy-positive cells,library stock concentration: 6.6 mM,54.3 ± 9.9%
same,percent Bodipy-positive cells,[1],65.7% and 51.6%
CCCCCOC(=O)Nc1nc(=O)n([C@@H]2O[C@H](C)[C@@H](O)[C@H]2O)cc1F [Capecitabine],percent Bodipy-positive cells,[2],9.84 ± 2.4%
same,percent Bodipy-positive cells,[1],17.2 ± 0.0064%
CCCCCOC(=O)Nc1nc(=O)n([C@@H]2O[C@H](C)[C@@H](O)[C@H]2O)cc1F,percent Bodipy-positive cells,[1],48.3 ± 26%
COc1ccc2cc(-c3nc(-c4ccc([S+](C)[O-])cc4)[nH]c3-c3ccncc3)ccc2c1 (stereo not drawn) [Tie2 kinase inhibitor],percent Bodipy-positive cells,[2],27.7 ± 14%
same,percent Bodipy-positive cells,[1],38.7 ± 18%
Cl.Cl.NC1(c2ccc(-c3nc4ccn5c(=O)[nH]nc5c4cc3-c3ccccc3)cc2)CCC1,percent Bodipy-positive cells,[6],89.6 ± 2.4%
same,percent Bodipy-positive cells,[4],99.4 ± 0.26%
CCN(CC)CCOc1ccc(C(=C(Cl)c2ccccc2)c2ccccc2)cc1 [Clomiphene citrate],percent Bodipy-positive cells,[7],52.1 ± 3.9%
same,percent Bodipy-positive cells,[1],16.1 ± 2.5%
CCN(CC)CCOc1ccc(C(=C(Cl)c2ccccc2)c2ccccc2)cc1 [Clomifene citrate],percent Bodipy-positive cells,[2],57.3 ± 1%
C[C@@H](CN1CCC(n2c(=O)[nH]c3cc(Cl)ccc32)CC1)NC(=O)c1ccc2ccccc2c1.Cl,percent Bodipy-positive cells,[1],80.8 ± 12%
CN1CCC(=C2c3ccccc3CCc3sccc32)CC1 [Pizotifen malate],percent Bodipy-positive cells,,48.8 ± 2.4%
CN1CCC(=C2c3ccccc3CCc3sccc32)CC1 [Pizotifen Malate],percent Bodipy-positive cells,[2],42.2 ± 1.4%
CN1CCC(=C2c3ccccc3CCc3sccc32)CC1 [Pizotyline malate],percent Bodipy-positive cells,library stock concentration: 4.7 mM,75.2 ± 4.1%
CCc1cc(-c2n[nH]c(C)c2-c2ccc3c(c2)OCCO3)c(O)cc1O,percent Bodipy-positive cells,[1],24.3 ± 3.8%
COc1ncc(-c2ccc3nccc(-c4ccnnc4)c3c2)cc1NS(=O)(=O)c1ccc(F)cc1F,percent Bodipy-positive cells,[5],11.4 ± 3.1%
same,percent Bodipy-positive cells,[6],18.2 ± 4.2%
same,percent Bodipy-positive cells,[4],12.6 ± 8.2%
same,percent Bodipy-positive cells,[2],13.9 ± 1.4%
same,percent Bodipy-positive cells,[1],57.7% and 57.3%
CN(C)C/C=C/C(=O)Nc1cccc(Nc2ncc3c(n2)N(C)c2ccccc2C(=O)N3C)c1,percent Bodipy-positive cells,[5],13.1 ± 2%
same,percent Bodipy-positive cells,[6],25.1 ± 4.3%
same,percent Bodipy-positive cells,[4],80.1 ± 3%
same,percent Bodipy-positive cells,[1],100%
CNCCC[C@]12CC[C@H](c3ccccc31)c1ccccc12 [Maprotiline HCl],percent Bodipy-positive cells,library stock concentration: 7.2 mM,78.9 ± 2%
COC(=O)c1ccc2c(c1)NC(=O)C2=C(Nc1ccc(N(C)C(=O)CN2CCN(C)CC2)cc1)c1ccccc1 [Nintedanib (BIBF 1120)],percent Bodipy-positive cells,[2],87.7 ± 5.9%
same,percent Bodipy-positive cells,[1],90.8 ± 1.6%
CN1CCOC(c2ccccc2)c2ccccc2C1 (stereo not drawn) [Nefopam hydrochloride],percent Bodipy-positive cells,,63.1 ± 5.4%
CN1CCOC(c2ccccc2)c2ccccc2C1 (stereo not drawn) [Nefopam],percent Bodipy-positive cells,library stock concentration: 7.9 mM,64.9 ± 5.4%
same,percent Bodipy-positive cells,[1],57.1 ± 12%
N=C(N)NCCCCN [Agmatine sulfate],percent Bodipy-positive cells,[1],45.9% and 28.2%
